# Screening data

Data taken from PubChem BioAssay AID1159506, deposited by NCATS (2015).

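Luminescence from an EWS-FLI1 target-promoter (NR0B1) reporter, set against a CMV-promoter reporter, two days after silencing single genes in TC32 Ewing sarcoma cells. Each siRNA was applied at 20 nM. A z-score of the log NR0B1-over-CMV signal, less the median of siRNAs with the same seed; more negative means a stronger specific loss of the NR0B1 reporter.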

This is part of the screen; most of the strongest results are not listed here. Sequences are the guide (antisense) strand, without overhang.

{"strand": "AGAAAUACAUAAAUGGUUC", "gene": "MMD", "seed-corrected z-score": "-0.1379"}
{"strand": "UCUUAGUCUGGGCUACUGG", "gene": "PTPRK", "seed-corrected z-score": "0.7431"}
{"strand": "UAAUGGAGUAUGGUGUCUG", "gene": "MYO7B", "seed-corrected z-score": "-1.178"}
{"strand": "UUCAGGACAAUCCUUCUUA", "gene": "LOC646388", "seed-corrected z-score": "1.223"}
{"strand": "AUUCCUCUAAUAAACAGUC", "gene": "PDE9A", "seed-corrected z-score": "0.2781"}
{"strand": "UUUGACCAGCGCAAACUCC", "gene": "NDN", "seed-corrected z-score": "0.005744"}
{"strand": "UACUCGAUUCAGGUACUUG", "gene": "CECR2", "seed-corrected z-score": "0.1568"}
{"strand": "UUACAUCACGGCUUGCUCC", "gene": "KRBA2", "seed-corrected z-score": "0.09798"}
{"strand": "UGUCUCACAACUGUCAGGU", "gene": "TNFSF15", "seed-corrected z-score": "0.8382"}
{"strand": "UAAGUUACAAGCUGGGUGC", "gene": "C9orf131", "seed-corrected z-score": "-0.08441"}
{"strand": "UUUGGUCAUAGGUCUGCCU", "gene": "C11orf84", "seed-corrected z-score": "-0.9496"}
{"strand": "UUGUUGGUCAGGAGGUUCC", "gene": "FLRT2", "seed-corrected z-score": "0.8539"}
{"strand": "UAGGGUUGAAAAUAUCACC", "gene": "HILPDA", "seed-corrected z-score": "-0.1878"}
{"strand": "UAAUCGUUGUGGAUGGUCU", "gene": "CA6", "seed-corrected z-score": "0.007628"}
{"strand": "UUGCGUAUCACAUCUUCGG", "gene": "SNCAIP", "seed-corrected z-score": "-0.2246"}
{"strand": "AACAUAAAUACAGAAGCGA", "gene": "SEC61B", "seed-corrected z-score": "0.6974"}
{"strand": "UCCACUAUAAUCUUGGAUG", "gene": "PNLIP", "seed-corrected z-score": "-0.09304"}
{"strand": "ACCGUGUCCACAUAGUUGG", "gene": "LOC642574", "seed-corrected z-score": "1.945"}
{"strand": "UUAGCCUCACGCUUCUUCU", "gene": "LRRC59", "seed-corrected z-score": "-0.3841"}
{"strand": "UCAUAGUCCAACUCAAAGC", "gene": "TRIM10", "seed-corrected z-score": "0.01721"}
{"strand": "UCUGUUGGUGUAAAAGUCC", "gene": "PIP", "seed-corrected z-score": "-0.2559"}
{"strand": "UACGAUAAAAUGAGAUUCC", "gene": "SLC7A2", "seed-corrected z-score": "-0.2597"}
{"strand": "UCUAUGUUCUCUGUCAUGU", "gene": "PODXL2", "seed-corrected z-score": "-0.7349"}
{"strand": "UUUCUUAGGAGGACAGACU", "gene": "SLPI", "seed-corrected z-score": "-0.3466"}
{"strand": "UUUGAAUCCAUCCCGACCU", "gene": "CTHRC1", "seed-corrected z-score": "0.2647"}
{"strand": "UGACUGAUGAGUCCACACC", "gene": "SUGT1", "seed-corrected z-score": "0.07994"}
{"strand": "AACAGUAUCUGGUAUUUGG", "gene": "VIPR2", "seed-corrected z-score": "0.4691"}
{"strand": "UACUAUUCGAUGAAAAAUG", "gene": "PPIL6", "seed-corrected z-score": "-0.2425"}
{"strand": "UACCCUUAUAAACAGUUCC", "gene": "RAF1", "seed-corrected z-score": "0.4633"}
{"strand": "UCUAUGACCAUUGGUCUUC", "gene": "TMEM126B", "seed-corrected z-score": "-0.9639"}